Data as given in PubChem BioAssay AID1159598 (NIAID, 2016)
Purpose: 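Canonical TLR pathway genes needed for TNF promoter response to flagellin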. Cells: human THP-1 B5 reporter cells made macrophage-like with PMA. Reagent: single siRNA against human genes. Time to read-out: reporter read 48 to 72 hours after siRNA transfection. Challenge: flagellin stimulation for 4 hours, dose not given. Measurement: 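Firefly to renilla ratio from a TNF promoter reporter after 4 h flagellin, as robust z against negative controls averaged across replicates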. Reading the numbers: TNF reporter z-score: higher = stronger TNF promoter activity than controls. Rule for the call: 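a row is called active when its replicate-mean z lies at or beyond 1.5 in either direction, so raised and lowered signal both count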. Calls: active = reporter shifted beyond 1.5 z, up or down; inactive = reporter within 1.5 z of controls.
The deposit covers 756 reagents; shown is a part drawn at random. Over the whole deposit, 142 (19%) got an active call. 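Active includes both higher and lower reporter signal; each gene has six separate siRNAs, and no gene-level summary is deposited.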 The numbers tell different reagents against one gene apart. Not given: the amount of reagent.

TNF reporter z-score, by gene and reagent
TAB2: #1 0.958 inactive; #2 -1.2 inactive; #3 -2.33 active; #4 -2.27 active; #5 -3.12 active; #6 -1.59 active
NFKBIA: #1 0.0133 inactive; #2 0.322 inactive; #3 -0.192 inactive; #4 -1.92 active; #5 -2.35 active; #6 -0.683 inactive
RAC1: #1 -0.053 inactive; #2 -1.77 active; #3 0.073 inactive; #4 -0.448 inactive; #5 -0.234 inactive; #6 -1.41 inactive
REL: #1 -0.0581 inactive; #2 -0.00525 inactive; #3 -0.0187 inactive; #4 -2.02 active; #5 -0.181 inactive; #6 -0.284 inactive
LY96: #1 -0.392 inactive; #2 -0.223 inactive; #3 0.503 inactive; #4 -0.84 inactive; #5 0.409 inactive; #6 -0.143 inactive
TICAM1: #1 -0.763 inactive; #2 -1.01 inactive; #3 -0.376 inactive; #4 -1.59 active; #5 -0.944 inactive; #6 -0.629 inactive
CCL3: #1 -0.336 inactive; #2 -0.672 inactive; #3 -0.755 inactive; #4 -0.175 inactive; #5 0.5 inactive; #6 -0.262 inactive
EGR1: #1 -1.97 active; #2 -2.32 active; #3 -3 active; #4 -0.997 inactive; #5 -0.374 inactive; #6 -0.734 inactive
IRF5: #1 -3.81 active; #2 -0.862 inactive; #3 0.29 inactive; #4 0.0714 inactive; #5 -0.776 inactive; #6 0.809 inactive
MAPK10: #1 -0.2 inactive; #2 -1.04 inactive; #3 -0.287 inactive; #4 0.117 inactive; #5 0.288 inactive; #6 -0.0669 inactive
DUSP2: #1 -0.0547 inactive; #2 -0.0741 inactive; #3 -4.27 active; #4 0.164 inactive; #5 -0.128 inactive; #6 -0.446 inactive
TBK1: #1 -1.68 active; #2 -1.3 inactive; #3 1.3 inactive; #4 0.389 inactive; #5 -0.6 inactive; #6 -0.528 inactive
STAT1: #1 -0.58 inactive; #2 -0.366 inactive; #3 -0.604 inactive; #4 -0.553 inactive; #5 1.26 inactive; #6 -0.773 inactive
MAPK13: #1 -2.51 active; #2 -0.877 inactive; #3 -1.96 active; #4 -1.05 inactive; #5 -0.499 inactive; #6 -0.688 inactive
MAPK11: #1 -0.888 inactive; #2 -1.48 inactive; #3 -0.0907 inactive; #4 -0.783 inactive; #5 0.185 inactive; #6 -0.267 inactive
TIRAP: #1 0.141 inactive; #2 -2.92 active; #3 -0.878 inactive; #4 -0.235 inactive; #5 0.548 inactive; #6 -0.348 inactive
FADD: #1 1.14 inactive; #2 -0.209 inactive; #3 -0.113 inactive; #4 -0.747 inactive; #5 -0.0569 inactive; #6 -1.83 active
PIK3CD: #1 -1.4 inactive; #2 -0.687 inactive; #3 0.651 inactive; #4 -1.73 active; #5 0.952 inactive; #6 -1.41 inactive
CASP8: #1 0.404 inactive; #2 -0.644 inactive; #3 -0.121 inactive; #4 -0.424 inactive; #5 -0.0022 inactive; #6 -1.24 inactive

14 entries from above in another layout.
gene,reagent no.,TNF reporter z-score,Outcome
REL,3,-0.0187,inactive
REL,4,-2.02,active
REL,5,-0.181,inactive
REL,6,-0.284,inactive
LY96,1,-0.392,inactive
LY96,2,-0.223,inactive
LY96,3,0.503,inactive
LY96,4,-0.84,inactive
LY96,5,0.409,inactive
LY96,6,-0.143,inactive
TICAM1,1,-0.763,inactive
TICAM1,2,-1.01,inactive
TICAM1,3,-0.376,inactive
TICAM1,4,-1.59,active
